This assay addresses T1, FLAG-tagged full-length SUUR (Suppressor of Underreplication protein) (Drosophila melanogaster) (UniProt Q9VTE2).
T1 sequence: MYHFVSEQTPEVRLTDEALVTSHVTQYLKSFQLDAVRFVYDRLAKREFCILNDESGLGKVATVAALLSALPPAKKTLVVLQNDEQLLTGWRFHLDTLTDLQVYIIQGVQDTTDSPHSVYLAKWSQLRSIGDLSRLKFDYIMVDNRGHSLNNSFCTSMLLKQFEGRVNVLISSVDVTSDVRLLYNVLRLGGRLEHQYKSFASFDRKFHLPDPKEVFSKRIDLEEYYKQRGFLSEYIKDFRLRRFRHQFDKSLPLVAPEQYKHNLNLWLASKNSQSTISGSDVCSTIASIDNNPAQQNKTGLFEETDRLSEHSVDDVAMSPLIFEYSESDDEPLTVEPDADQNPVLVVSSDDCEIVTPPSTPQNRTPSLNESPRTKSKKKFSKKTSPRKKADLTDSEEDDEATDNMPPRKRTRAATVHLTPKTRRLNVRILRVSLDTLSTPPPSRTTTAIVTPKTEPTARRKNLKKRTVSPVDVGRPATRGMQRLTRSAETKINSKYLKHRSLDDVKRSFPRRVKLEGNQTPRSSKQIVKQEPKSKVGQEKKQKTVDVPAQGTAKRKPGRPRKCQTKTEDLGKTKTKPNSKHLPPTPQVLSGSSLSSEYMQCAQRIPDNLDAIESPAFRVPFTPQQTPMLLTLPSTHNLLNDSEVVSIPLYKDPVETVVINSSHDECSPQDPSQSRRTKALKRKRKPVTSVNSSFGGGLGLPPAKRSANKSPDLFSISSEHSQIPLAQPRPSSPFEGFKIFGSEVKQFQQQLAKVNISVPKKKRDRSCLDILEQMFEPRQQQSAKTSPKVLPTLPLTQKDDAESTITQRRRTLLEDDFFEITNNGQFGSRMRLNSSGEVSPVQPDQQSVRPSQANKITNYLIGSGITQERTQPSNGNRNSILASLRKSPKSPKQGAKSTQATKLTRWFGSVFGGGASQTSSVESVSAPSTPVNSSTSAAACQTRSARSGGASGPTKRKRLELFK
As to the kind of experiment: co-IP; FLAG-SUUR immunoprecipitated from 0 to 24 hr embryos extracted with NP40 lysis buffer with or without Benzonase treatment; blots with anti-Rif1 and anti-FLAG; wild-type as no-FLAG control.

Drawing on publication PMC6185109, this text covers binding for one molecule.

These are yes or no findings as the source states them, for the method shown. In cells and extracts the contact can be indirect. Some entries that bind do so weakly or less than the wild type. Sequences can lack the tags named with a protein.

B1: Rif1 (Rap1-interacting factor 1) (protein, UniProt Q9XZ34 1-1416)
chain: MDVDFGAQAGQSYRTVQLSAKEVLAAGRRQHYCNMIDLLASSCKSSGLIATSFTDDELVEFWLGDILPLMFDADRKIQDCAVAALAEALVALDVSVIHSAKCWPQIRSEFVDKYTIIIGEMRDAKNSNWHKIWTLLVQIMDEDLLRGCVYINKFLALVELGFRNPDNGVRSEAFLCWRVLIKIFAAYDELTSAKRLRLLLIPLRTSQSRSSHVSGIKLRVWWYLLSCLDHELPKSFDSAVEHFLAFMLGGGPRNLATGLAHNYQTARELALPCLVALWGVESSEPLQRLMRELRLETLVQPSPLMSVEVFQQHWKPLLAAAVSGLKLLTENDATEAEQLLLQLLVRNLCLAMFRLAVAPFNVACCSEIEKILQAEDNSGGRVVRALFNTIAADNLVMERVSGSDHLDVLEAYLKLVLKSKTEVPAAILQRSIACIFAVDRIEANNQNEFRMLGSFAELLMQANDEEDFEGFAFKLQVWRQVSQALSNYLRNNALEYRVAHNASLLDTWLLWPLQTLAAFAGRRASNSFDASFCDQWRQLVNAGQNAPGRKKFLTDLKATLTDLLKSKDEPLFAELFDAYVTSLIKFGLCKEAPLYKDVFGLLQTIFEQPSSQKTLEACLNTLRNLVVELRQNELMVVFDSLKPTLSSGIQCWNKMKCEGGFLEEWKRGIQEKFRKLPMKTMANQLKELFKADDLFVIIPSVWSLNPEKLTDRQKERFAEKSDIPALYNDMSQSQDSASIKPWTPKKVVIAKSKQGELALTGKDDNGEVIDITASEESEKEPVRVDVVTPIRKKPGRKSQAQKELEAAARAASLAEEPPKRQTRTRAAQKETEQVAQPQPAFEPQLRSPKKLPPSPVVQSTAAAVKQAKVAKPTPVVVIAQSEDLFPEVAAEPEPQPEPVKKPDPVPETTQLTPPDVPLEAVPSTQLPGSSGDPAASAGAVAAGEMSPKKSGTRIYNLSSPPDRKQTNNSSSPTLRPKPTGHLTGRGAQLINMIRNKKLDAASGSPYACMSTSRLVHQVTPARAQDRAEQVSTPTSELNELTGTDHTSTPIQAPPSKDLLVFSKRLPSPSASPSVSILKRKLRCESLDDVTLDSPALKRKRVSFHDPPVSVTKEYLRDAEETRSSLKPKRCLLMDKVAQTTEMRQALRRRGRLDSIIEIERFASEQTARTATTDKSLDKSTGEAPEEDAFTSLKWNDTGNAHNISISEEPVKAMEVESELETAGQDLAIMDPEAALDLAVAQLPLESVLQRYFDKSPLKSAGMLAKFLSAQMTANEKLKTNVLETLSENHSKDFLDHAVRENLSSVVCDRLNPTSVLEYVCAKSKISASCRNGLLAQVPEILKSGPRSDSERLAFVQQLMVQCSPGDDLLLDLIDLLMRTRRERNNSTSTHISKGVVSAVGSPDNVAETAADSSSNL
As for B1, the binding result is on record as “binds”.
